Experimental findings from the supplement of paper PMC10849652 are described below.

By UniProt entry, the sequences of proteins in these tests, tags left out. Where a name states a change or a piece, a line headed by the entry shows the natural chain unless it says otherwise.
UniProt P09874, whole entry, looked up: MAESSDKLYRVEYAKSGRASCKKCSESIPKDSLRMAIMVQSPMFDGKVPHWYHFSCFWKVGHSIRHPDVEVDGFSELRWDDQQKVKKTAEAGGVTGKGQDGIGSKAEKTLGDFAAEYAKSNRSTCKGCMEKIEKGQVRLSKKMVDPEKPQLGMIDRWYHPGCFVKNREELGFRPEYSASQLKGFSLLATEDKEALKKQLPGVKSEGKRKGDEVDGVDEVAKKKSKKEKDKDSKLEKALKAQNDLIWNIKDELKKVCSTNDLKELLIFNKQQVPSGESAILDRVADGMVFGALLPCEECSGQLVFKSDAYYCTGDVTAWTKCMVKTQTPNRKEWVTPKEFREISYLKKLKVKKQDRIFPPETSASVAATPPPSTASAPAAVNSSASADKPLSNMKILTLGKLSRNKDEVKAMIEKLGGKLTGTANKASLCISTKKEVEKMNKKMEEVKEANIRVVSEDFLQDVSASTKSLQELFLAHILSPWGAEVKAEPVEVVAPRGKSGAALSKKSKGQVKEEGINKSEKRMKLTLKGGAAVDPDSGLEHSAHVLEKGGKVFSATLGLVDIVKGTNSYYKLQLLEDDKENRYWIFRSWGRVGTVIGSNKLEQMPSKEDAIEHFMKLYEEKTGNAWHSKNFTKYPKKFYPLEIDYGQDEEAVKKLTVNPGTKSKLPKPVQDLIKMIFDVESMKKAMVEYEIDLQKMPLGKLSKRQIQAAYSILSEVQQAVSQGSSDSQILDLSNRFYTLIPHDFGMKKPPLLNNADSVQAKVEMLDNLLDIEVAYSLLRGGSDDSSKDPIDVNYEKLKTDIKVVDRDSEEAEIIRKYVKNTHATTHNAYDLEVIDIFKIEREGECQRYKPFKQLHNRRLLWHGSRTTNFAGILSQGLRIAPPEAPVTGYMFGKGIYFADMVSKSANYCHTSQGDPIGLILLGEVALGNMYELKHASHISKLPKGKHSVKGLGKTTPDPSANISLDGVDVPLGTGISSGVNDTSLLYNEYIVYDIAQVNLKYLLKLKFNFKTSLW
UniProt Q15004: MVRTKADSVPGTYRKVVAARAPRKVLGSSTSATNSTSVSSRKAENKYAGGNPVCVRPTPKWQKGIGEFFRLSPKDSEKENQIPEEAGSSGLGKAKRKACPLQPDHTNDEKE
UniProt P68402: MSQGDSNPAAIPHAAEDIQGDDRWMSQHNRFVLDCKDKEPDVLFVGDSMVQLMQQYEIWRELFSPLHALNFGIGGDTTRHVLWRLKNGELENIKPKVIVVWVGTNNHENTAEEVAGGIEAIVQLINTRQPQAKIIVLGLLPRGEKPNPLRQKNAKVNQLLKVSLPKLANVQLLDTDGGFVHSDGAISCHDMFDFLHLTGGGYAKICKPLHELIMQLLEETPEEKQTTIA
UniProt Q5JVF3: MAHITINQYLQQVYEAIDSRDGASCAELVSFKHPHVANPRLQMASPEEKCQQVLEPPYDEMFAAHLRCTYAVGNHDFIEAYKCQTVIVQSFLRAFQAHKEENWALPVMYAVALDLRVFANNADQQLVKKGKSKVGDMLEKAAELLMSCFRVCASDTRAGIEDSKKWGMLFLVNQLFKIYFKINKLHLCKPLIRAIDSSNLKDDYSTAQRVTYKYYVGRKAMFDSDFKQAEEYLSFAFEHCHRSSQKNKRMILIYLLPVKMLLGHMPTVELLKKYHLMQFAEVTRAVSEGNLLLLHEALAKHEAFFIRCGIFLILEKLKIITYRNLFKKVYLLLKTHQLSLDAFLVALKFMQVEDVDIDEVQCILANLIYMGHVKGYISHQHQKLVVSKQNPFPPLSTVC
UniProt O96013: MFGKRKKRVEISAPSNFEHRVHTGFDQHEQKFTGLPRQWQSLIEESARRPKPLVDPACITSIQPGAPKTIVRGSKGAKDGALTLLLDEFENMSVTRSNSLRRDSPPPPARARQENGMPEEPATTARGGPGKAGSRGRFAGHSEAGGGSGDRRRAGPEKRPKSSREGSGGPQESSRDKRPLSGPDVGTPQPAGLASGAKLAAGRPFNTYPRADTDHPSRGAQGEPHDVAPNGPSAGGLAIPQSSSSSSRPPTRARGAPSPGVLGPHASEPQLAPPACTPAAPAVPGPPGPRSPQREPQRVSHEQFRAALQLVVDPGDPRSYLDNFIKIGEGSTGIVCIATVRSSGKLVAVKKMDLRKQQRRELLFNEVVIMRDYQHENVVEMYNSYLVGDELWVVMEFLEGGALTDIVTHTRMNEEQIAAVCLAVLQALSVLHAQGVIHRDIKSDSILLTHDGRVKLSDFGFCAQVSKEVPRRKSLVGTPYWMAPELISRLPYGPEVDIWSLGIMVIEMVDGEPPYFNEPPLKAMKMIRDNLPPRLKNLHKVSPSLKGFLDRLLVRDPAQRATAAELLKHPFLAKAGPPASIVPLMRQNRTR
UniProt O43924: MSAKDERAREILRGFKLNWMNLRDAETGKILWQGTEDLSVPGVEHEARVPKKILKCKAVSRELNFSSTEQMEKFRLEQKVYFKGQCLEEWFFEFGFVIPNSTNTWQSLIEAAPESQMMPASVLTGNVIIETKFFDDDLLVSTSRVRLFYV
UniProt O95453: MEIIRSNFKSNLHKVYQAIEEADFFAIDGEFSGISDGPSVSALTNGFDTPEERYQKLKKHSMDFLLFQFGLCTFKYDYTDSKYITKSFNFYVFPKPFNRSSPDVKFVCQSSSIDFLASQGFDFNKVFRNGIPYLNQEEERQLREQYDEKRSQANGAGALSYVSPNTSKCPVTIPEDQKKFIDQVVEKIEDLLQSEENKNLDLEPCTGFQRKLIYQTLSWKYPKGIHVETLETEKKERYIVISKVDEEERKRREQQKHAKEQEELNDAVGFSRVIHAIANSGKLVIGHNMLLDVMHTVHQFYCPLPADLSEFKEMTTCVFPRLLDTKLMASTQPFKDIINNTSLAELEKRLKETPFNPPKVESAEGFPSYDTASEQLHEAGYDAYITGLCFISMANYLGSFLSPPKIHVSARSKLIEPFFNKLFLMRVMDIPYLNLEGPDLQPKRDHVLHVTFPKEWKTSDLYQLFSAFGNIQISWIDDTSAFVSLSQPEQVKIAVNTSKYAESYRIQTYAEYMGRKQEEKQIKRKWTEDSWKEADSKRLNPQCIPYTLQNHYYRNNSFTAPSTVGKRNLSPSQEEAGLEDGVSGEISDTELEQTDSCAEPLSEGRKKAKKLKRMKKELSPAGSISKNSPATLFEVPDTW
UniProt Q29RF7: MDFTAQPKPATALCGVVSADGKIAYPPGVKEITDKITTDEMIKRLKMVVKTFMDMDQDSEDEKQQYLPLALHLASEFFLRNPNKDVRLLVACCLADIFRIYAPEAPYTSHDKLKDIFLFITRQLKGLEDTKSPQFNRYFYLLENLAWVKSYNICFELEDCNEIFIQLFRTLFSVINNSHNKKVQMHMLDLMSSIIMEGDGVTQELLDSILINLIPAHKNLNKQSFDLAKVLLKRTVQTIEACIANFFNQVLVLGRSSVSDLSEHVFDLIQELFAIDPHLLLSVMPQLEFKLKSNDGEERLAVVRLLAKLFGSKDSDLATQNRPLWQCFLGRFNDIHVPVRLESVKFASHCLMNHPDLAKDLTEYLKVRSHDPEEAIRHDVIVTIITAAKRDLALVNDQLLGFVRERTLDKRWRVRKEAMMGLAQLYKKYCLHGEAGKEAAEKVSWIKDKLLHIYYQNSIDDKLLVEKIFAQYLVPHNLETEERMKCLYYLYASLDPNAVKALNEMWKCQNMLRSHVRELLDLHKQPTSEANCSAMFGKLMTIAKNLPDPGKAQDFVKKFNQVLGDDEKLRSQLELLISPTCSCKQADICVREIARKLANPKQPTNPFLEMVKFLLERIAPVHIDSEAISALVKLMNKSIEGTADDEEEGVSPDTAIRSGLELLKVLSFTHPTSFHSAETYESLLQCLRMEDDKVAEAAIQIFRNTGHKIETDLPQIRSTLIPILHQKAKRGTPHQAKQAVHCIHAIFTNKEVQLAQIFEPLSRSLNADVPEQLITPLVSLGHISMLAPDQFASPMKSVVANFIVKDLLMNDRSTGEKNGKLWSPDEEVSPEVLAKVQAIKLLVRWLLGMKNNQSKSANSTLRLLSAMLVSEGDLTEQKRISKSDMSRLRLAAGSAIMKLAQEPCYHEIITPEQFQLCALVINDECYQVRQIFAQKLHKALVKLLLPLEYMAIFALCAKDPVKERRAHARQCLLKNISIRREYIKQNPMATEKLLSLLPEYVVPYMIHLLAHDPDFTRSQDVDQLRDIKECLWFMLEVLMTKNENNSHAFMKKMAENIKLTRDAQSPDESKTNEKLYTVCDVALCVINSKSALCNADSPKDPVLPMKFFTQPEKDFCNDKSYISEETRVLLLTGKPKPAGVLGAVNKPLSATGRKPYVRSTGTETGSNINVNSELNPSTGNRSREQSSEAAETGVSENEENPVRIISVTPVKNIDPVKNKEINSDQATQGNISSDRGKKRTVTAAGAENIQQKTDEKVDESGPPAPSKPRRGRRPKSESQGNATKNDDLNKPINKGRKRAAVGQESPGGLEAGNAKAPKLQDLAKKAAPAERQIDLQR
UniProt Q15365, whole entry, looked up: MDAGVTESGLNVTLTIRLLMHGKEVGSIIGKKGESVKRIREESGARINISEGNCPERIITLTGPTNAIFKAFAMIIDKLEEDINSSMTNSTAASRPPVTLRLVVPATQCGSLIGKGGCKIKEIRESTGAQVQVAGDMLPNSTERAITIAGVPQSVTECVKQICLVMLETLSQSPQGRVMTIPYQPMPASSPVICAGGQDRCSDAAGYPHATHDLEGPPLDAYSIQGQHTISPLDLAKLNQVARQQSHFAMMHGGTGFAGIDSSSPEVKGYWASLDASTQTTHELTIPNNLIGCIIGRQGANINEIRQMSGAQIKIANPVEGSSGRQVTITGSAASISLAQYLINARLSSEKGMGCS
UniProt Q6VY07, whole entry, looked up: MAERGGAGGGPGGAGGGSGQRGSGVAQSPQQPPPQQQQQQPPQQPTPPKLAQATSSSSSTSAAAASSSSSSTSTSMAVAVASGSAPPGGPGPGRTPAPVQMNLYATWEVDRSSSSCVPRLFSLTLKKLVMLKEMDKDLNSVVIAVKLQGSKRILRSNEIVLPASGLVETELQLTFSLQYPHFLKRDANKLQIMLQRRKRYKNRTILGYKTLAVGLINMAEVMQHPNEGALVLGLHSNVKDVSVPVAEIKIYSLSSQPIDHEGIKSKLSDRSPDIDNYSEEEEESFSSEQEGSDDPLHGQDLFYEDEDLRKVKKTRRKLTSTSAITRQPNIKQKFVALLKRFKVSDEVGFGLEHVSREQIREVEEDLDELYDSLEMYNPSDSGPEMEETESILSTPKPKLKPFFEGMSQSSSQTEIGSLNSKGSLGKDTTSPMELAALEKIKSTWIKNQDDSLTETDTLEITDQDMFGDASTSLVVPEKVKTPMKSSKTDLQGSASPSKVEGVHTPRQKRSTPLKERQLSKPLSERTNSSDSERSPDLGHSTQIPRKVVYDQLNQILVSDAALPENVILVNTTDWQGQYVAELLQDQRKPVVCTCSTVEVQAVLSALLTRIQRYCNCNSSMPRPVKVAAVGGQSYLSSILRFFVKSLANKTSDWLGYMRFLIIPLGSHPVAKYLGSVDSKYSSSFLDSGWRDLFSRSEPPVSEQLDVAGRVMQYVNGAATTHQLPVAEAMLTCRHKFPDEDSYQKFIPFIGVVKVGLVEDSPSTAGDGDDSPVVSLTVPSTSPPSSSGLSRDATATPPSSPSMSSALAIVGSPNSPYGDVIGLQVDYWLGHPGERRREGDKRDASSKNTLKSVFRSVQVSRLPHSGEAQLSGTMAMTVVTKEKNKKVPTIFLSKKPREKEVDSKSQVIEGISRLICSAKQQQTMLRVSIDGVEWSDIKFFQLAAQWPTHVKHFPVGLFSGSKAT
UniProt Q15121, whole entry, looked up: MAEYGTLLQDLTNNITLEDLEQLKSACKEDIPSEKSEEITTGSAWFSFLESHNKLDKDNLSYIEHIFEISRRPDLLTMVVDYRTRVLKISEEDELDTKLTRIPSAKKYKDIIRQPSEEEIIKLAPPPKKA
UniProt O15530: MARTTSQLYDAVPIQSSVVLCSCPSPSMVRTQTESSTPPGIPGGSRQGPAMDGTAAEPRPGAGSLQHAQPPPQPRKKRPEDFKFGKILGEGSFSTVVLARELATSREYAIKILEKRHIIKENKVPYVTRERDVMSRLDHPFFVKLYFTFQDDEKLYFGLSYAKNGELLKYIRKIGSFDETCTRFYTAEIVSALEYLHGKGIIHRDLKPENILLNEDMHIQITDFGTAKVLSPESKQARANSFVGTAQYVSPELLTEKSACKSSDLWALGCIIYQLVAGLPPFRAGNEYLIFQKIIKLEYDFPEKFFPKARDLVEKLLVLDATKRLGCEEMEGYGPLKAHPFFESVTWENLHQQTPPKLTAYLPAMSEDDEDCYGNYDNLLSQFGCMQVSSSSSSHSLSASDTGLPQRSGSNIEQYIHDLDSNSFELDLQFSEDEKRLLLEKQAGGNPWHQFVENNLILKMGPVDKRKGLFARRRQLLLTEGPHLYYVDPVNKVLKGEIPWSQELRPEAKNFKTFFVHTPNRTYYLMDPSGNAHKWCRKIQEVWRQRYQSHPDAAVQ

The list shows a part of the results.

Compound in the assay: CN1CCN(CCOc2cc(OC3CCOCC3)c3c(Nc4c(Cl)ccc5c4OCO5)ncnc3c2)CC1 [saracatinib]
Put plainly: log2 fold change, soluble protein after heating vs DMSO (PISA); higher = thermal stabilisation; K562 cells, 10 uM, 30 min; active = over 0.2 and 3.5 SD of the protein, either way, in both replicates (recomputed). In a few lines: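 Aliquots of K562 cells (2×10^6 cells/mL) treated with 10 μM compound for 30 min were heated for 3 min over 48°C-58°C. After pooling and extraction in PBS with 0.5% NP-40 at 4°C, soluble protein from a 21,000xg, 90 min spin was quantified by TMTpro 16plex LC-MS/MS with channel sums equalised. Thermal stability is expressed against control samples, from duplicates, as a log2 fold change.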
For PARP1 (UniProt P09874), the log2 fold change was inactive: -0.025.

For the target PCLAF (UniProt Q15004), the log2 fold change was inactive: 0.057.

Consider PAFAH1B2 (UniProt P68402), for which the log2 fold change was inactive: -0.016.

With PCYT1A (UniProt P49585), the log2 fold change was inactive: -0.014.

PATL1 (UniProt Q86TB9): the log2 fold change is inactive: -0.075.

On to PECAM1 (UniProt P16284), for which the log2 fold change is inactive: 0.062.

Turning to PCIF1 (UniProt Q9H4Z3), the log2 fold change was inactive: 0.062.

In the case of PCID2 (UniProt Q5JVF3), the log2 fold change was inactive: -0.164.

Regarding PARL (UniProt Q9H300), the log2 fold change is inactive: 0.056.

PDE2A (UniProt O00408): the log2 fold change was inactive: -0.011.

On to PAK4 (UniProt O96013), for which the log2 fold change was inactive: -0.047.

For the target PAK1 isoform 2 (UniProt Q13153), the log2 fold change is inactive: 0.074.

Turning to PDE6D (UniProt O43924), the log2 fold change was inactive: -0.074.

PARN (UniProt O95453): the log2 fold change is inactive: -0.013.

On to PDS5A (UniProt Q29RF7), for which the log2 fold change was inactive: -0.094.

As for PEX11B (UniProt O96011), the log2 fold change was inactive: 0.052.

Take PCBP1 (UniProt Q15365): the log2 fold change was inactive: 0.009.

Take PACS1 (UniProt Q6VY07): the log2 fold change is inactive: -0.018.

On to PCBP2 isoform 3 (UniProt Q15366), for which the log2 fold change was inactive: -0.023.

With PEA15 isoform 2 (UniProt Q15121), the log2 fold change is inactive: 0.05.

Take PBX2 (UniProt P40425): the log2 fold change was inactive: 0.082.

PBK (UniProt Q96KB5): the log2 fold change was inactive: 0.01.

As for PDPK1 (UniProt O15530), the log2 fold change was inactive: -0.008.
